# Reference: the supplement of paper PMC4683952
# Where a name gives a salt, the structure may show the parent alone. Among all 1,200 compounds or so, about 50 (4%) showed activity. No stated cut-off is given here; in the data, all actives reach 1.3 or more but so do some inactives. The list shows a part of the results.
# Tested on: Lgr5 (MarsCy1-Lgr5-EGFP, U2OS)
# Test: cell-surface Lgr5 expression (SCi1 fluorescence, background-subtracted) relative to WT DMSO (fold of DMSO control); higher = more Lgr5 at the plasma membrane, active = hit call of the paper
# Conditions: U2OS MarsCy1-Lgr5-EGFP stable; treatment time: overnight; 16 µM; library: Johns Hopkins Clinical Compound Library
row,Compound,cell-surface Lgr5 expression
1,C[C@H]1c2cccc(O)c2C(=O)C2=C(O)[C@]3(O)C(=O)C(C(N)=O)=C(O)[C@@H](N(C)C)[C@@H]3[C@@H](O)[C@@H]21 [Doxycycline],inactive: 0.511
2,C[C@H]1c2cccc(O)c2C(=O)C2=C(O)[C@]3(O)C(=O)C(C(N)=O)=C(O)[C@@H](N(C)C)[C@@H]3[C@@H](O)[C@@H]21 [Doxycycline hyclate],inactive: 0.543
3,Clc1ccc(C(Cn2ccnc2)OCc2ccsc2Cl)c(Cl)c1 (stereo not given) [Tioconazole],inactive: 0.707
4,"C[C@](N)(Cc1ccc(O)c(O)c1)C(=O)O [Methyl-DOPA (alpha-methyl-L-beta-3,4-dihydroxyphenylalanine)]",inactive: 0.929
5,c1cnc(N2CCN(Cc3ccc4c(c3)OCO4)CC2)nc1 [Piribedil maleate],inactive: 1.06
6,O.O.O=C(O)c1cc(O)c2c(c1)[O][Bi][O]2 [Bismuth III gallate basic hydrate],inactive: 0.96
7,O=C(Cc1cccs1)N[C@@H]1C(=O)N2C(C(=O)O)=C(/C=C/c3ccc([N+](=O)[O-])cc3[N+](=O)[O-])CS[C@H]12 [Nitrocefin],inactive: 0.867
8,IC(I)I [Iodoform],inactive: 1.24
9,NCC(O)CC(=O)O (racemic) [DL-gamma-Amino-beta-hydroxybutyric Acid],inactive: 1.01
10,CC(C)O [Isopropyl alcohol],inactive: 1.24
11,O.O=C([O-])CC(O)(CC(=O)[O-])C(=O)[O-].[K+].[K+].[K+] [Potassium citrate monohydrate],inactive: 0.699
12,"Cc1cc(C(C)(C)C)c(O)c(C(C)(C)C)c1 [Butylated hydroxytoluene (2,6-Di-tert-butyl-4-methylphenol)]",inactive: 1.25
13,COc1ccc(-c2cc(=S)ss2)cc1 [Anethole-trithione (Anetholtrithion)],inactive: 0.965
14,"O=C([O-])O.[Na+] [Sodium bicarbonate, powder]",inactive: 1.08
15,[Fe+3].[Fe+3].[O-2].[O-2].[O-2].[O-2].[Zn+2] [Calamine],inactive: 0.886
16,CCC(=O)[O-].[Na+] [Propionic acid sodium salt],inactive: 0.936
17,CCC(=O)[O-].[Na+] [Sodium propionate],inactive: 0.539
18,CN1CC(=O)N2[C@H](c3ccc4c(c3)OCO4)c3[nH]c4ccccc4c3C[C@@H]2C1=O [Tadalafil],inactive: 0.987
19,CC(C)NCC(O)COc1ccc(CCOCC2CC2)cc1 (stereo not given) [Betaxolol],inactive: 1.1
20,CCc1nc(N)nc(N)c1-c1ccc(Cl)cc1 [Pyrimethamine],inactive: 0.998
21,CCN(CC)CCNC(=O)c1cc(Cl)c(N)cc1OC [Metoclopramide hydrochloride],inactive: 0.82
22,CCOc1ccc2ccccc2c1C(=O)N[C@@H]1C(=O)N2[C@@H]1SC(C)(C)[C@@H]2C(=O)O [Nafcillin sodium salt monohydrate],inactive: 0.729
23,CN(C)C/C=C(/c1ccc(Br)cc1)c1cccnc1 [Zimelidine dihydrochloride],inactive: 1.26
24,CC(C)(CO)C(O)C(=O)NCCCO (stereo not given) [Panthenol (pantothenol)],inactive: 0.705

# Copied from the list:
# CCN(CC)CCNC(=O)c1cc(Cl)c(N)cc1OC [Metoclopramide hydrochloride] – cell-surface Lgr5 expression: inactive: 0.82
# CCc1nc(N)nc(N)c1-c1ccc(Cl)cc1 [Pyrimethamine] – cell-surface Lgr5 expression: inactive: 0.998

# Two entries from above, with bars between the fields:
row | Compound | cell-surface Lgr5 expression
18 | CN1CC(=O)N2[C@H](c3ccc4c(c3)OCO4)c3[nH]c4ccccc4c3C[C@@H]2C1=O [Tadalafil] | inactive: 0.987
19 | CC(C)NCC(O)COc1ccc(CCOCC2CC2)cc1 (stereo not given) [Betaxolol] | inactive: 1.1

# More results.

row,Compound,cell-surface Lgr5 expression
1,O=C(O)CCNC(=O)c1ccccc1 [Betamipron (n-benzoyl-b-alanine)],inactive: 1.16
2,CN1CCC[C@@H]1Cc1c[nH]c2ccc(CCS(=O)(=O)c3ccccc3)cc12 [Eletriptan hydrobromide],inactive: 0.952
3,NC(N)=NCCC[C@H](N)C(=O)O [L-Arginine L-glutamate salt],inactive: 0.893
4,O=C([O-])C(O)C(O)C(=O)O.[K+] (stereo not given) [Potassium bitartrate (Potassium hydrogen tartrate)],inactive: 1
5,O=C1OC2(c3cc(I)c(O)c(I)c3Oc3c2cc(I)c(O)c3I)c2c(Cl)c(Cl)c(Cl)c(Cl)c21 [Rose bengal],inactive: 0.724
6,OCc1cccnc1 [Nicotinyl alcohol (3-Pyridylcarbinol)],inactive: 1.04
7,NS(=O)(=O)c1cc2c(cc1Cl)NC(C(Cl)Cl)NS2(=O)=O (stereo not given) [Trichlormethiazide],active: 1.44
8,N[C@@H](C(=O)N[C@@H]1C(=O)N2C(C(=O)O)=C(Cl)CC[C@H]12)c1ccccc1 [Loracarbef],inactive: 0.67
9,CN(CCO)CC(O)Cn1cnc2c1c(=O)n(C)c(=O)n2C (stereo not given) [Xanthinol niacinate (Xanthinol Nicotinate)],inactive: 1.05
10,CCN(CC)CCOC(=O)c1ccc(N)cc1Cl [Chloroprocaine],inactive: 0.953
11,CC12CCC(CC1=O)C2(C)C (stereo not given) [Camphor],inactive: 1.14
12,Cc1c(-c2ccccc2)oc2c(C(=O)OCCN3CCCCC3)cccc2c1=O [Flavoxate hydrochloride],inactive: 0.864
13,NCCCC(=O)O [4-Aminobutyric acid (GABA)],inactive: 1.24
14,NCCCC(=O)O [GABA (gamma-Amino-n-Butyric Acid)],inactive: 1.21
15,CCCCCCCCCCCCCCCCCCCCCCO [Docosanol (Behenyl alcohol)],inactive: 1.07
16,Cc1cccc(C)c1NC(=O)C(C)N (stereo not given) [Tocainide hydrochloride],inactive: 1.07
17,CO/N=C(\C(=O)N[C@@H]1C(=O)N2C(C(=O)O)=C(CSc3nnnn3C)CS[C@H]12)c1csc(N)n1 [Cefmenoxime hydrochloride],inactive: 0.944
18,"Nc1nc2[nH]cnc2c(=S)[nH]1 [Thioguanine (2-amino,6-mercaptopurine)]",inactive: 0.849
19,O=C(OCC(O)CO)c1ccccc1Nc1ccnc2cc(Cl)ccc12 (stereo not given) [Glafenine],active: 1.63
20,COc1ccccc1OCC(O)CO (stereo not given) [Guaifenesin],inactive: 1.27
21,COc1ccccc1OCC(O)CO (stereo not given) [Guaifenesen (Guaiacol glyceryl ether)],inactive: 1.11
22,Cc1cc(=O)[nH]c(=S)[nH]1 [Methylthiouracil (6-Methyl-2-thiouracil)],inactive: 1.25
23,CN1[C@@H]2CC[C@H]1C[C@@H](OC(=O)c1c[nH]c3ccccc13)C2 [Tropisetron HCl],inactive: 1.17
24,CCOC(=O)C1=C(COCCN)NC(C)=C(C(=O)OC)C1c1ccccc1Cl (stereo not given) [Amlodipine besylate],inactive: 1.05

row,Compound,cell-surface Lgr5 expression
1,Cc1c(N(C)C)c(=O)n(-c2ccccc2)n1C [Aminopyrine (4 Dimethylamino antipyrene)],inactive: 0.932
2,Cc1c(N(C)C)c(=O)n(-c2ccccc2)n1C [Aminopyrine (4-Dimethylamino-antipyrine)],inactive: 1.14
3,NC(CCC(=O)O)C(=O)O (racemic) [DL-Glutamic acid monohydrate],inactive: 0.692
4,CC(=O)NS(=O)(=O)c1ccc(NC(=O)c2ccccc2C(=O)O)cc1 [Phthalylsulfacetamide],inactive: 0.905
5,O=C(c1ccccc1)C(O)c1ccccc1 (stereo not given) [Benzoin],inactive: 1.11
6,CC(S)C(=O)NCC(=O)O (stereo not given) [Tiopronin (n-2-mercaptopropionyl glycine)],inactive: 1.01
7,CNC[C@H](O)c1ccc(O)c(O)c1 [Epinephrine],inactive: 1.57
8,CN(C(=O)C(Cl)Cl)c1ccc(OC(=O)c2ccco2)cc1 [Diloxanide furoate],inactive: 1.05
9,CN(C)CCOC(C)(c1ccccc1)c1ccccn1 (stereo not given) [Doxylamine Succinate salt],inactive: 1.18
10,C=CCNC(N)=S [Allylthiourea (1-Allyl-2-thiourea)],inactive: 1.12
11,C#C[C@]1(O)CC[C@H]2[C@@H]3CCc4cc(O)ccc4[C@H]3CC[C@@]21C.C[C@]12CCC(=O)C=C1[C@@H]1C[C@@H]1[C@H]1[C@@H]3[C@@H]4C[C@@H]4[C@@]4(CCC(=O)O4)[C@@]3(C)CC[C@@H]12 [Drospirenone and ethinyl estradiol],inactive: 0.912
12,CC(=O)c1ccc2c(c1)N(CCCN(C)C)c1ccccc1S2 [Acepromazine],inactive: 0.967
13,Oc1c(I)cc(Cl)c2cccnc12 [Clioquinol],inactive: 1.18
14,CC(C)(C#N)c1cc(Cn2cncn2)cc(C(C)(C)C#N)c1 [Anastrozole],inactive: 1.19
15,O=C(C1CCCCC1)N1CC(=O)N2CCc3ccccc3C2C1 (stereo not given) [Praziquantel],inactive: 1.17
16,CO[C@H]1/C=C/O[C@@]2(C)Oc3c(C)c(O)c4c(O)c(cc(O)c4c3C2=O)NC(=O)/C(C)=C\C=C\[C@H](C)[C@H](O)[C@@H](C)[C@@H](O)[C@@H](C)[C@H](OC(C)=O)[C@@H]1C [Rifamycin sv],inactive: 0.785
17,CN1CCC(=C2c3ccccc3CCc3cccnc32)CC1 [Azatadine maleate],inactive: 1.19
18,Nc1nc2ccc(OC(F)(F)F)cc2s1 [Riluzole],inactive: 0.449
19,Oc1cc(O)c2c(c1)O[C@H](c1ccc(O)c(O)c1)[C@H](O)C2 [Epicatechin (-)-],inactive: 1.07
20,[Mg+2].[OH-].[OH-] [Magnesium hydroxide],inactive: 1.25
21,CC(C)(C)NCC(O)COc1cccc2c1CCC(=O)N2 (stereo not given) [Carteolol hydrochloride],inactive: 1.08
22,O.O.O.O.O.O.[Al+3].[Cl-].[Cl-].[Cl-] [Aluminum chloride hexahydrate],inactive: 0.814
